This assay has as its target α2-Macroglobulin. The assay is described as follows: ELISA; coated glycoprotein, biotin-labeled lectin. (In general: ELISA stands for enzyme-linked immunosorbent assay.)

Data on 1 molecule can be found in US20120244563A1.

Results are given in words; binding and its absence hold for the method and conditions named. Binding can be weak; no strength is given.

B1: Aleuria aurantia lectin (protein, UniProt P18891 2-313, looked up)
chain: PTEFLYTSKIAAISWAATGGRQQRVYFQDLNGKIREAQRGGDNPWTGGSSQNVIGEAKLFSPLAAVTWKSAQGIQIRVYCVNKDNILSEFVYDGSKWITGQLGSVGVKVGSNSKLAALQWGGSESAPPNIRVYYQKSNGSGSSIHEYVWSGKWTAGASFGSTVPGTGIGATAIGPGRLRIYYQATDNKIREHCWDSNSWYVGGFSASASAGVSIAAISWGSTPNIRVYWQKGREELYEAAYGGSWNTPGQIKDASRPTPSLPDTFIAANSSGNIDISVFFQASGVSLQQWQWISGKGWSIGAVVPTGTPAGW
modifications: biotin label (site not stated)
Consider B1, for which the binding entry is reported as “binds”.
